Source: paper PMC9365560
No constants are given. Whether binding was seen depends on the method and setting. Binding seen in cells or lysates may run through a third protein. Some results given as binding are weak or reduced against the parent protein; the word gives no strength.

The chains behind the UniProt entries cited, without tags or fusion partners.
UniProt O15379: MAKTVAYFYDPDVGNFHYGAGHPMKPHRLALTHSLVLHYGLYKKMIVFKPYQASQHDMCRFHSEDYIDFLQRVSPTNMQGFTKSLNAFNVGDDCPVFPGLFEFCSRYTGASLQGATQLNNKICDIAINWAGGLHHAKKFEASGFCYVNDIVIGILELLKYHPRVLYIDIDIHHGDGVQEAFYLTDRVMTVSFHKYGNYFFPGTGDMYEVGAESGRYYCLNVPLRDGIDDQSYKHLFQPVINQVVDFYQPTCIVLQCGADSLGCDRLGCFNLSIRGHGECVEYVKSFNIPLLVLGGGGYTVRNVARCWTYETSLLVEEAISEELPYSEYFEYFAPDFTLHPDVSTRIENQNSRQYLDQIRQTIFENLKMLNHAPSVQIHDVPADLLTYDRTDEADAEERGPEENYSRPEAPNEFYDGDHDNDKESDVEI

Molecular target: T1, Methyl-CpG-binding protein 1 (MBD1) (human (endogenous in SGC-7901)) (UniProt Q9UIS9)
T1 sequence: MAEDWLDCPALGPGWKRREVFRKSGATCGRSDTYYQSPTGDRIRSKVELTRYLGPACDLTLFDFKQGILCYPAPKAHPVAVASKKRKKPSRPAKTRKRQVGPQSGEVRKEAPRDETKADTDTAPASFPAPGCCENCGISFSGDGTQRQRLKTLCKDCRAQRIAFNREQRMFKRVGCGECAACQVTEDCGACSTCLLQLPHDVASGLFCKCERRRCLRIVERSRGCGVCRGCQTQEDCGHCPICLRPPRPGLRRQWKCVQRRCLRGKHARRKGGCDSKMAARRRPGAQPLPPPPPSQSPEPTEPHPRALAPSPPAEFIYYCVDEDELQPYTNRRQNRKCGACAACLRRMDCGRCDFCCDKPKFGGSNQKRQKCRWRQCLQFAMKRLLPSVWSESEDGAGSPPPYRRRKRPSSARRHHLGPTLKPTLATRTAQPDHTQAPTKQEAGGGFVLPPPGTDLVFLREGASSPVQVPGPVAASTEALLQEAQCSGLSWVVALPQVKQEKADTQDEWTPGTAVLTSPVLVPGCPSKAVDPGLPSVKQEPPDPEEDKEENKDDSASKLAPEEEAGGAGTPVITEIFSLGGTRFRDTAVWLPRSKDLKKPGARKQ
Test: co-IP; total protein of SGC-7901 cells; 10 ug of MBD1, HDAC3 antibody added to 300 ul of cell lysis for 30 min at 4 C, Dynal magnetic beads 2 h, boiled, Western blot

“histone deacetylase (HDAC3) (from UniProt O15379 1-428)” was tested, and the binding was “binds”.
